Data taken from PubChem BioAssay AID248 (DTP/NCI, 2004).
The list is a part of this screen's results and no random one: it is rich in T/C values a quarter to a half above the control, in often repeated tests (any T/C) and in doses without a T/C. Other doses and runs of a compound stand elsewhere. T/C is the treated group as % of the vehicle group. Some doses have a count of surviving animals in place of a T/C: the source holds a T/C of zero for them, seemingly a mark for toxic or unscored doses. Survivors were counted at the toxicity check, usually on the fifth day, unless a day is given; later deaths do not show. Schedule codes are those of the source, read here as Q, the interval in days (D) or hours (H), X, the number of doses. Some entries were tested several times; their values stand side by side, smallest first. Some schedules carry Z or #; the key to these is not given. Where survival is the endpoint, the PubChem record calls one and a half times the control and up active, and a quarter to a half above the control has no call in these data; cut-offs in other NCI protocols can differ. Some T/C values are followed by the survivors on the day toxicity was checked, most often the fifth; without a count, all were alive then.

Tested on: L1210 leukemia ip in BDF1 mice, survival T/C
Test: NCI In Vivo Anticancer Drug Screen. Data for tumor model L1210 Leukemia (intraperitoneal) in B6D2F1 (BDF1) mice
Details: T/C endpoint: mean survival time, higher T/C = longer survival
[1] = dose: 2.5 mg/kg/injection, schedule: Q01DX Z (im), vehicle: saline
[2] = dose: 5.0 mg/kg/injection, schedule: Q01DX Z (im), vehicle: saline

With `N#[N+]c1cnc([O-])[nH]c1=O` the T/C (dose: 1.0 mg/kg/injection, schedule: Q01DX009 (ip), vehicle: carboxymethylcellulose (CMC)) was 126 % of control, the T/C (dose: 1.0 mg/kg/injection, schedule: Q01DX009 (ip), vehicle: saline) was 126 % of control and the survivor count (dose: 1.2 mg/kg/injection, schedule: Q01DX Z (im), vehicle: saline) was 2 of 6. The T/C (dose: 1.25 mg/kg/injection, schedule: Q#A X Z (ip), vehicle: methylcellulose (MC)) was 133 % of control, the T/C (dose: 1.89 mg/kg/injection, schedule: Q03DX Z (ip), vehicle: methylcellulose (MC)) was 126 % of control and the T/C (dose: 2.0 mg/kg/injection, schedule: Q01DX009 (ip), vehicle: carboxymethylcellulose (CMC)) was 132 % of control. For the same molecule, the T/C (dose: 2.0 mg/kg/injection, schedule: Q01DX009 (ip), vehicle: saline) was 127 and 136 % of control, the T/C (dose: 2.5 mg/kg/injection, schedule: Q01DX005 (ip), vehicle: Klucel (hydroxypropylcellulose) (HPC)) was 141 % of control and the T/C (dose: 2.5 mg/kg/injection, schedule: Q01DX005 (ip), vehicle: alkali diluted with saline) was 131 % of control. For the same molecule, the T/C (dose: 2.5 mg/kg/injection, schedule: Q01DX005 (ip), vehicle: saline) was 138 % of control, the T/C (dose: 2.5 mg/kg/injection, schedule: Q01DX009 (ip), vehicle: saline) was 116, 118, 125, 144 % of control and the T/C (dose: 2.5 mg/kg/injection, schedule: Q01DX010 (ip), vehicle: saline) was 131 % of control. The T/C [1] was 127 % of control, the survivor count [1] was 1 of 6 and the T/C (dose: 2.5 mg/kg/injection, schedule: Q01DX Z (ip), vehicle: carboxymethylcellulose (CMC)) was 130 % of control. The T/C (dose: 2.5 mg/kg/injection, schedule: Q#A X Z (ip), vehicle: methylcellulose (MC)) was 133 % of control, the T/C (dose: 4.0 mg/kg/injection, schedule: Q01DX001 (ip), vehicle: carboxymethylcellulose (CMC)) was 129 % of control and the T/C (dose: 4.0 mg/kg/injection, schedule: Q01DX009 (ip), vehicle: carboxymethylcellulose (CMC)) was 134 % of control. The T/C (dose: 4.0 mg/kg/injection, schedule: Q01DX009 (ip), vehicle: saline) was 127 [5 of 6 alive] and 131 % of control, the T/C (dose: 4.0 mg/kg/injection, schedule: Q## X002 (ip), vehicle: carboxymethylcellulose (CMC)) was 126 % of control and the T/C (dose: 4.0 mg/kg/injection, schedule: Q## X003 (ip), vehicle: carboxymethylcellulose (CMC)) was 132 % of control. The T/C (dose: 4.4 mg/kg/injection, schedule: Q07DX Z (ip), vehicle: methylcellulose (MC)) was 128 % of control, the T/C (dose: 5.0 mg/kg/injection, schedule: Q01DX005 (ip), vehicle: Klucel (hydroxypropylcellulose) (HPC)) was 144 % of control and the T/C (dose: 5.0 mg/kg/injection, schedule: Q01DX005 (ip), vehicle: alkali diluted with saline) was 143 % of control. The T/C (dose: 5.0 mg/kg/injection, schedule: Q01DX005 (ip), vehicle: saline) was 147 % of control, the T/C (dose: 5.0 mg/kg/injection, schedule: Q01DX009 (ip), vehicle: saline) was 117, 120, 129, 134 % of control [5 of 6 alive] and the T/C (dose: 5.0 mg/kg/injection, schedule: Q01DX010 (ip), vehicle: saline) was 129 and 139 % of control. The T/C (dose: 5.0 mg/kg/injection, schedule: Q01DX015 (ip), vehicle: alkali diluted with saline) was 141 % of control, the T/C [2] was 140 % of control and the survivor count [2] was 0 of 6. For the same molecule, the T/C (dose: 5.0 mg/kg/injection, schedule: Q01DX Z (ip), vehicle: carboxymethylcellulose (CMC)) was 139 % of control, the T/C (dose: 5.0 mg/kg/injection, schedule: Q01DX Z (sc), vehicle: steroid suspending solution) was 127 % of control and the T/C (dose: 5.0 mg/kg/injection, schedule: Q04DX003 (ip), vehicle: alkali diluted with saline) was 125 % of control. The T/C (dose: 5.0 mg/kg/injection, schedule: Q04DX003 (ip), vehicle: saline) was 125 % of control, the T/C (dose: 5.0 mg/kg/injection, schedule: Q#A X Z (ip), vehicle: methylcellulose (MC)) was 149 % of control and the T/C (dose: 7.5 mg/kg/injection, schedule: Q03DX Z (ip), vehicle: methylcellulose (MC)) was 133 % of control. The T/C (dose: 7.7 mg/kg/injection, schedule: Q01DX015 (ip), vehicle: alkali diluted with saline) was 142 % of control, the T/C (dose: 8.0 mg/kg/injection, schedule: Q01DX001 (ip), vehicle: carboxymethylcellulose (CMC)) was 135 % of control and the T/C (dose: 8.0 mg/kg/injection, schedule: Q01DX009 (ip), vehicle: saline) was 143 % of control. The T/C (dose: 8.0 mg/kg/injection, schedule: Q## X002 (ip), vehicle: carboxymethylcellulose (CMC)) was 134 % of control, the T/C (dose: 8.0 mg/kg/injection, schedule: Q## X003 (ip), vehicle: carboxymethylcellulose (CMC)) was 135 % of control and the T/C (dose: 8.0 mg/kg/injection, schedule: Q## X008 (ip), vehicle: carboxymethylcellulose (CMC)) was 134 % of control. The T/C (dose: 10.0 mg/kg/injection, schedule: Q01DX005 (ip), vehicle: alkali diluted with saline) was 149 % of control, the T/C (dose: 10.0 mg/kg/injection, schedule: Q01DX005 (ip), vehicle: saline) was 140 % of control and the T/C (dose: 10.0 mg/kg/injection, schedule: Q01DX009 (ip), vehicle: saline) was 131, 148, 171 [4 of 6 alive], 173 % of control. For the same molecule, the T/C (dose: 10.0 mg/kg/injection, schedule: Q01DX010 (ip), vehicle: saline) was 147 % of control, the T/C (dose: 10.0 mg/kg/injection, schedule: Q01DX Z (ip), vehicle: carboxymethylcellulose (CMC)) was 145 % of control and the survivor count (dose: 10.0 mg/kg/injection, schedule: Q01DX Z (ip), vehicle: saline) was 2 of 6. For the same molecule, the T/C (dose: 10.0 mg/kg/injection, schedule: Q01DX Z (sc), vehicle: steroid suspending solution) was 133 % of control, the T/C (dose: 10.0 mg/kg/injection, schedule: Q04DX003 (ip), vehicle: alkali diluted with saline) was 131 % of control and the T/C (dose: 10.0 mg/kg/injection, schedule: Q04DX003 (ip), vehicle: saline) was 131 [5 of 6 alive] and 139 % of control. The T/C (dose: 10.0 mg/kg/injection, schedule: Q#A X Z (ip), vehicle: methylcellulose (MC)) was 147 % of control, the T/C (dose: 11.5 mg/kg/injection, schedule: Q01DX015 (ip), vehicle: alkali diluted with saline) was 143 % of control and the T/C (dose: 12.0 mg/kg/injection, schedule: Q01DX001 (ip), vehicle: alkali diluted with saline) was 141 % of control. For the same molecule, the T/C (dose: 15.0 mg/kg/injection, schedule: Q01DX001 (ip), vehicle: alkali diluted with saline) was 131 % of control, the T/C (dose: 15.0 mg/kg/injection, schedule: Q01DX001 (ip), vehicle: saline) was 127 % of control [5 of 6 alive] and the T/C (dose: 16.0 mg/kg/injection, schedule: Q01DX001 (ip), vehicle: carboxymethylcellulose (CMC)) was 142 % of control. For the same molecule, the T/C (dose: 16.0 mg/kg/injection, schedule: Q01DX009 (ip), vehicle: carboxymethylcellulose (CMC)) was 135 % of control [9 of 10 alive] and the survivor count (dose: 16.0 mg/kg/injection, schedule: Q01DX009 (ip), vehicle: saline) was 1 of 6 and 3 of 6.
